From patent US20150337356A1
No constants are given. Whether binding was seen depends on the method and setting. Binding seen in cells or lysates may run through a third protein. A result given as binding can be weak or reduced; the word gives no strength.

The chains behind the UniProt entries cited, without tags or fusion partners. Where a name states a change or a piece, a line headed by the entry shows the natural chain unless it says otherwise. A line that says so, or that is headed by a name, gives the form on record, which may keep a tag or linker.
UniProt P78536: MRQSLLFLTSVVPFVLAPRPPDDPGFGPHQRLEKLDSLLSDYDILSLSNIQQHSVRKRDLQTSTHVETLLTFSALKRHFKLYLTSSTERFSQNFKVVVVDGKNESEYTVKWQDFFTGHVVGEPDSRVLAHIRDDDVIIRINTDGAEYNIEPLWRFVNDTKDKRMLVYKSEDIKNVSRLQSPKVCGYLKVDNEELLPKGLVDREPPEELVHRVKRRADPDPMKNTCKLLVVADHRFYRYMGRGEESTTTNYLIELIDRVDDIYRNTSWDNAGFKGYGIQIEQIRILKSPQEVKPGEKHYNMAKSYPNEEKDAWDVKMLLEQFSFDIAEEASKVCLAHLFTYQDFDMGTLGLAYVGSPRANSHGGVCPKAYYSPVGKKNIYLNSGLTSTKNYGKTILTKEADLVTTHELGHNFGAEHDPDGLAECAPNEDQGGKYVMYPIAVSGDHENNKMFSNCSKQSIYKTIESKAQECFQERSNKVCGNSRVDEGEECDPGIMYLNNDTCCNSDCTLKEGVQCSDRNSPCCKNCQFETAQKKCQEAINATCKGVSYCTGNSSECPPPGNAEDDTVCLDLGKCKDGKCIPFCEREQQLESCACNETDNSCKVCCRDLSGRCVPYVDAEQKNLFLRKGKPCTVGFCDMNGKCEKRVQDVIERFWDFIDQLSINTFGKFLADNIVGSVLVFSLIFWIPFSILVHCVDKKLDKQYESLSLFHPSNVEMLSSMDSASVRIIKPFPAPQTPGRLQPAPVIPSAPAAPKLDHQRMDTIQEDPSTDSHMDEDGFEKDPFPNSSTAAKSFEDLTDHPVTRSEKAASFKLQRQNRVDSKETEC
paxillin (wild type) (P49023, form named): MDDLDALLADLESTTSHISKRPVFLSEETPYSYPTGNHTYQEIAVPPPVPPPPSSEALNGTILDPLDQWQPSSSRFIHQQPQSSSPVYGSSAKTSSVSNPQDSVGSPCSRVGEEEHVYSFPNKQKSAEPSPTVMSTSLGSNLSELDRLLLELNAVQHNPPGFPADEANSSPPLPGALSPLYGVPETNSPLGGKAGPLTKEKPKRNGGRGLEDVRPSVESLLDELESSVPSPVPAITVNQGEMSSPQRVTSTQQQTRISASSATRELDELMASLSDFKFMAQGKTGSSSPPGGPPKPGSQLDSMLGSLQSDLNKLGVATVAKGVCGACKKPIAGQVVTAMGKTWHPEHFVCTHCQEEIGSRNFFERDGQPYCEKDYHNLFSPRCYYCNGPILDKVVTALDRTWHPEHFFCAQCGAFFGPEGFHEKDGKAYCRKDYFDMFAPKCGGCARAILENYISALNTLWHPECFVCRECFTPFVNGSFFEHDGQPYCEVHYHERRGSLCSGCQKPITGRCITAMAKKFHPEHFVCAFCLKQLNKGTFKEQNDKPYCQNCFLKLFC
paxillin S258A (P49023, form named): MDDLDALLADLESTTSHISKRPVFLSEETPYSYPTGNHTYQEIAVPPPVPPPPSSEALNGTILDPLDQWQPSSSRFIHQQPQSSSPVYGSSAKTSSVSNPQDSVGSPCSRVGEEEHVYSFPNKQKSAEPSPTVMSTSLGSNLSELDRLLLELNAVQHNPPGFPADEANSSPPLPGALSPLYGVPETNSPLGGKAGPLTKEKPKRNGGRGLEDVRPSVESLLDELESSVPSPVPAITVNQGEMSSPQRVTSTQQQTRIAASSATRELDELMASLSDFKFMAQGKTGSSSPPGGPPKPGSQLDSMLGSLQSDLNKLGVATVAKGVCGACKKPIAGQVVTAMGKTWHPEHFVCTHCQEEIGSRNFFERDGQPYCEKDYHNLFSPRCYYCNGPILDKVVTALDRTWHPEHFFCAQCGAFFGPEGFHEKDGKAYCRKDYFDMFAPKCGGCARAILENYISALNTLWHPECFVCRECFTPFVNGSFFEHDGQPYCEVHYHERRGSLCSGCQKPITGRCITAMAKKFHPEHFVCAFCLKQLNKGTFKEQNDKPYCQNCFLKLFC
paxillin S272/274E (P49023, form named): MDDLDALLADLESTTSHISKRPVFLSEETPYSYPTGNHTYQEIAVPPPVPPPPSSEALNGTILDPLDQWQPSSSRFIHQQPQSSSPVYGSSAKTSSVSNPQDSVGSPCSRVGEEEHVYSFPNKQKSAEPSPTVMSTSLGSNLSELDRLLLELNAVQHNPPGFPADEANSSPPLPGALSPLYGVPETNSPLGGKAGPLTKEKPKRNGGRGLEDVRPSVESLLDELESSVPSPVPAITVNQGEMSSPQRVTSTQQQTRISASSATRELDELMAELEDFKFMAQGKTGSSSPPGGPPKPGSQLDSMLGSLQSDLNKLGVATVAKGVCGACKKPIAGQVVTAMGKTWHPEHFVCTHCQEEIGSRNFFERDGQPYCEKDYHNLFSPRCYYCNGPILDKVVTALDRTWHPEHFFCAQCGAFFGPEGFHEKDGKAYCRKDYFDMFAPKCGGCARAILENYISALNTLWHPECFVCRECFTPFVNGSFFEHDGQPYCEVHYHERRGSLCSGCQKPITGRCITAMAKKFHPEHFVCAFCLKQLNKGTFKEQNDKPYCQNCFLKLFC

How the values were obtained:
[1] = target: TNFα converting enzyme (TACE/ADAM17) (UniProt P78536); experiment: co-immunoprecipitation of paxillin and TACE in the presence of Pak1/2 mutants (FIG. 2C)
[2] = target: TNFα converting enzyme (TACE/ADAM17) (UniProt P78536); experiment: co-immunoprecipitation with Nef/mNAKC and constitutive active Pak1/2 (FIG. 2D)
[3] = target: TNFα converting enzyme (TACE/ADAM17) (UniProt P78536); experiment: co-immunoprecipitation of paxillin and TACE, 293T cells (FIG. 2A)
[4] = target: TNFα converting enzyme (TACE/ADAM17) (UniProt P78536); experiment: co-immunoprecipitation of paxillin mutants and TACE, 293T cells (FIG. 2A)

Row | binding [1] | binding [2] | binding [3] | binding [4] | Substance
1 | binds | binds | binds | – | paxillin (wild type) (from UniProt P49023 1-557)
2 | – | binds | – | binds | paxillin S258A (from UniProt P49023 1-557)
3 | – | – | – | binds | paxillin S272/274E (from UniProt P49023 1-557)
